According to paper PMC10667520:
No constants are given. Whether binding was seen depends on the method and setting. Binding seen in cells or lysates may run through a third protein. Some entries that bind do so weakly or less than the wild type. Where a sequence is shown, tags or fusion partners need not be part of it.

Sequences of proteins named here, by UniProt entry; tags and fusion partners are left off. A change or cut given only in a name is not applied to a line headed by its entry.
UniProt P46531: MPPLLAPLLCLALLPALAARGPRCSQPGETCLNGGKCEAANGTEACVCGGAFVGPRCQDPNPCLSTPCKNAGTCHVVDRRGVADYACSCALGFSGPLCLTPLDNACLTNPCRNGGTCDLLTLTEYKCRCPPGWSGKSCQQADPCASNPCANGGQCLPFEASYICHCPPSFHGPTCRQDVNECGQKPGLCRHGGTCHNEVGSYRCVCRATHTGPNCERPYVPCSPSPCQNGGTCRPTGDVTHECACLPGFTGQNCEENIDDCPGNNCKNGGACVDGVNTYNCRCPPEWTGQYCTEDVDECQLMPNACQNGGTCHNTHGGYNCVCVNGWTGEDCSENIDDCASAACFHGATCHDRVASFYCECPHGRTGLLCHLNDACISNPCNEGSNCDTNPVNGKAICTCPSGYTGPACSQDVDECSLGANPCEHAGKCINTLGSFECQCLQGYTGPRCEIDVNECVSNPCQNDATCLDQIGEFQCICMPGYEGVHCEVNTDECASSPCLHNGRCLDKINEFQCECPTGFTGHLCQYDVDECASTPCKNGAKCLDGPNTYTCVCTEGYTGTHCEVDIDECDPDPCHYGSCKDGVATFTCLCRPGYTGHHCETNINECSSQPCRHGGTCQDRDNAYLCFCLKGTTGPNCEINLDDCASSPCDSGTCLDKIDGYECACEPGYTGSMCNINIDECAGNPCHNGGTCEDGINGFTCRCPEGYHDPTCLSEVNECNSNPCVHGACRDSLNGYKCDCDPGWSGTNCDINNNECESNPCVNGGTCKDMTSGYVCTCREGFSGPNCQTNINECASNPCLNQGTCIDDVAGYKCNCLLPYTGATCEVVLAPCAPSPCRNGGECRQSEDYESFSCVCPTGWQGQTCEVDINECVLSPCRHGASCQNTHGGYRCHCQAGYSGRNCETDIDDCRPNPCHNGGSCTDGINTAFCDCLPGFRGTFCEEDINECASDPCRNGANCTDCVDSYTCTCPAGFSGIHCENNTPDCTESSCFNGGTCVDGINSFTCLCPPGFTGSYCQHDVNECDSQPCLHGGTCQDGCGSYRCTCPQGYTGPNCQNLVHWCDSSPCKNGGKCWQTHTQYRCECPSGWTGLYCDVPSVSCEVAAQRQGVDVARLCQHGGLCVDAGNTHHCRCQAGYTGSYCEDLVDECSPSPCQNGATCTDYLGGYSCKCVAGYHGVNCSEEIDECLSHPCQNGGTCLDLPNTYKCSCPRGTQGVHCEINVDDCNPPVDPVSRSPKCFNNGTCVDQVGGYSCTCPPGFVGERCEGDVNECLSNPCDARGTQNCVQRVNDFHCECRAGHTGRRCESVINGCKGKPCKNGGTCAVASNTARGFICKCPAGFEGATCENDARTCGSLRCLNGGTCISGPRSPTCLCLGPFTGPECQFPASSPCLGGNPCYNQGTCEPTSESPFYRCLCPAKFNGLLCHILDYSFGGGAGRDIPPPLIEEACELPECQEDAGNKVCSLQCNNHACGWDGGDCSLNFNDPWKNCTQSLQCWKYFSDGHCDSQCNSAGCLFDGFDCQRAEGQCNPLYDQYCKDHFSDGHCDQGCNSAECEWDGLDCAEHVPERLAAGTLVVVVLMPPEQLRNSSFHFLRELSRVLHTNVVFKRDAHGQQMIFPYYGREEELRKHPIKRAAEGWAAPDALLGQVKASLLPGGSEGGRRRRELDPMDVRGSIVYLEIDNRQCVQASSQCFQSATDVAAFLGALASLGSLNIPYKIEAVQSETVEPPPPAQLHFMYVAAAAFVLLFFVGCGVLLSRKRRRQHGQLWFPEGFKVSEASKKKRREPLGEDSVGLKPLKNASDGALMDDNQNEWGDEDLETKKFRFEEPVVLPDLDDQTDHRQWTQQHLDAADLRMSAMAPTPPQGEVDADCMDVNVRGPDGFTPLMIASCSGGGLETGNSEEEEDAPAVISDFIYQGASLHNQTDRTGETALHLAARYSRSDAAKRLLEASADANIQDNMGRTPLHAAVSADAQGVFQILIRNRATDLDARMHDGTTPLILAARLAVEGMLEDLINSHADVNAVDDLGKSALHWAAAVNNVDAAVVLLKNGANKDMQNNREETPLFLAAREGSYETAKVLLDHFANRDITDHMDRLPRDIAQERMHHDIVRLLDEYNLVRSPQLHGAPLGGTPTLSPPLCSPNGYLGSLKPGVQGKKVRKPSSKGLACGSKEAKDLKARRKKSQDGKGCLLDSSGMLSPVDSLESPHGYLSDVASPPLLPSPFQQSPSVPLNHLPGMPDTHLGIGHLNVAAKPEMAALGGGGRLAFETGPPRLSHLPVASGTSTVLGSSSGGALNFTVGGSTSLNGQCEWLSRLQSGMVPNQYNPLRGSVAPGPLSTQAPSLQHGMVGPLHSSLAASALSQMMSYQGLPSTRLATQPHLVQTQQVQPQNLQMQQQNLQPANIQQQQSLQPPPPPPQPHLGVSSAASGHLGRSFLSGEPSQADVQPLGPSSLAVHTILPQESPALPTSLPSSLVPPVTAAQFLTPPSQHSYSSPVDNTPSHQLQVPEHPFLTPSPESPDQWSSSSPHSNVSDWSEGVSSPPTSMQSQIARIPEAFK

Assays:
[1] = biological target: T1, SLC35D3 (solute carrier family 35, member D3), His-tagged (UniProt Q5M8T2); assay: co-IP; HEK293T cells 48 h after transfection, lysed in IP lysis buffer; lysates incubated with antibodies at 4 °C overnight, protein A/G beads 1 h at room temperature; immunoblot
T1 sequence: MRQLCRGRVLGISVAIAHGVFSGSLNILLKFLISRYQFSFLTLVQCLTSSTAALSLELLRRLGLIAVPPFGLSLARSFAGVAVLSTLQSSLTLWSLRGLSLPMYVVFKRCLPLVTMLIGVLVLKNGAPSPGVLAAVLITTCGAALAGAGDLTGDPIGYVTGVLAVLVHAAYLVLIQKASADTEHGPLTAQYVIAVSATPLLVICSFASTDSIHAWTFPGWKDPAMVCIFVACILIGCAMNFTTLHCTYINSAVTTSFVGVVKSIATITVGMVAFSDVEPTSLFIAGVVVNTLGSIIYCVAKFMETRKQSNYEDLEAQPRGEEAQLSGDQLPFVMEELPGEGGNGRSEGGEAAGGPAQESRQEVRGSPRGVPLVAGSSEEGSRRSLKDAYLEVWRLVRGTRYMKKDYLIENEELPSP

GST-SLC35D3 = biological target: T2, GST-SLC35D3 (UniProt Q5M8T2); assay: pull-down; purified GST-SLC35D3 (bait) immobilised on glutathione affinity resin, incubated with Myc-ECD protein lysate at 4 °C for at least 1 h; western blot; only the target purified
T2 sequence: T1 sequence

Substance	binding [1]	binding (GST-SLC35D3)
NOTCH1 (from UniProt P46531 19-2555) (receptor)	binds	–
myc-tagged NOTCH1 extracellular domain (ECD) (from UniProt P46531 19-1735) (domain or fragment)	binds	binds
